According to paper PMC4428707:
No constants are given. Whether binding was seen depends on the method and setting. Binding seen in cells or lysates may run through a third protein. Binding calls can cover weak binding; strength is not graded here. Blank lines part the entries; values can stand above or below the binder they belong to.

Key:
[1] = molecular target: SP-R210S, short isoform of the surfactant protein A receptor SP-R210 (Myo18A) (mouse (endogenous in Raw264.7)); experiment: co-IP; precipitation with affinity purified polyclonal anti-SP-R210 (recognises SP-R210L and SP-R210S) from 5 mg/mL extracts of control and SP-R210L(DN) Raw264.7 cells; lysis buffer 50 mM Tris-HCl pH 8.0, 150 mM NaCl, 1% NP-40; protein G beads, 4°C; Western blot
[2] = molecular target: SP-R210S, short isoform of the surfactant protein A receptor SP-R210 (Myo18A) (mouse (endogenous in Raw264.7)); experiment: co-IP; precipitation with monoclonal anti-SP-R210 from 2.5 mg/mL extracts of control and SP-R210L(DN) Raw264.7 cells, before and 10, 30, 60 and 120 min after 100 ng/mL LPS; re-probed with polyclonal SP-R210 antibodies; control: monoclonal IgG1 against an unrelated viral antigen

binding [1]: binds
B1: scavenger receptor class A (SR-A) (receptor, UniProt P30204 1-458)
chain: MTKEMTENQRLCPHEQEDADCSSESVKFDARSMTASLPHSTKNGPSLQEKLKSFKAALIALYLLVFAVLIPVVGIVTAQLLNWEMKNCLVCSLNTSDTSQGPMEKENTSKVEMRFTIIMEHMKDMEERIESISNSKADLIDTERFQNFSMATDQRLNDILLQLNSLISSVQEHGNSLDAISKSLQSLNMTLLDVQLHTETLNVRVRESTAKQQEDISKLEERVYKVSAEVQSVKEEQAHVEQEVKQEVRVLNNITNDLRLKDWEHSQTLKNITFIQGPPGPQGEKGDRGLTGQTGPPGAPGIRGIPGVKGDRGQIGFPGGRGNPGAPGKPGRSGSPGPKGQKGEKGSVGGSTPLKTVRLVGGSGAHEGRVEIFHQGQWGTICDDRWDIRAGQVVCRSLGYQEVLAVHKRAHFGQGTGPIWLNEVMCFGRESSIENCKINQWGVLSCSHSEDAGVTCTS

binding [1]: binds | binding [2]: binds
B2: CD14 (receptor, UniProt P10810 16-336)
chain: SPAPPEPCELDEESCSCNFSDPKPDWSSAFNCLGAADVELYGGGRSLEYLLKRVDTEADLGQFTDIIKSLSLKRLTVRAARIPSRILFGALRVLGISGLQELTLENLEVTGTAPPPLLEATGPDLNILNLRNVSWATRDAWLAELQQWLKPGLKVLSIAQAHSLNFSCEQVRVFPALSTLDLSDNPELGERGLISALCPLKFPTLQVLALRNAGMETPSGVCSALAAARVQLQGLDLSHNSLRDAAGAPSCDWPSQLNSLNLSFTGLKQVPKGLPAKLSVLDLSYNRLDRNPSPDELPQVGNLSLKGNPFLDSESHSEKFN
